Binding signal data for 42 sequences are collected here from PMC7819943, “Rice protein-binding microarrays: a tool to detect cis-acting elements near promoter regions in rice”.

The other results are listed elsewhere or left out.

This experiment addresses T1, OsSMF1 (Oryza sativa, UniProt Q6ZLB0 1-436).
T1 sequence: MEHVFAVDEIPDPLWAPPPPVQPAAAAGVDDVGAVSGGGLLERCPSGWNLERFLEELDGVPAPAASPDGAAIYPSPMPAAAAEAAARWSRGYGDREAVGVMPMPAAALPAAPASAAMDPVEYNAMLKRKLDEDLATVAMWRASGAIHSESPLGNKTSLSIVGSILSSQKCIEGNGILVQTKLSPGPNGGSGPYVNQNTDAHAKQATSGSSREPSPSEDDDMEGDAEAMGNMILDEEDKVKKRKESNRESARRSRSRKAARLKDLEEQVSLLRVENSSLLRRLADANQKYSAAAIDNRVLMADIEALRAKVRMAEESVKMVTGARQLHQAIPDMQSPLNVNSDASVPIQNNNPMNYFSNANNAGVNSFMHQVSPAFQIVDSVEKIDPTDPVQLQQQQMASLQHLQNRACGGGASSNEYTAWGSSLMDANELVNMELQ
The experiment can be described thus: protein-binding microarray (RPBM); PBS, 2% BSA, 51.3 ng/ul salmon testes DNA, 50 uM zinc acetate, 200 nM TF, 25 C, 1 h; high values mean tight binding. As to conditions: protein: recombinant; tags: N-terminal polyhistidine and DsRed monomer fusion (pET32a); chain copies: 2; label: CyDye5-dUTP incorporated in the synthesized complementary strand; 3' TTTTT single-stranded linker to array surface; dsDNA, one strand shown. Put shortly: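 The binding signal is fluorescence intensity per array feature (arbitrary units). Readings came from an Axon 4000B scanner after a washed, 2% BSA-blocked, double-stranded custom Agilent array had been incubated for 1 h at 25 °C with 200 nM protein and 50 µM zinc acetate. The protein was a Ni–NTA-purified transcription factor fused N-terminally to polyhistidine and DsRed, expressed in E. coli BL21-CodonPlus.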
“CGCACGCACACCGGCGGCGTACGTGCAATCGTGCACCACCCGGAGTCACCTAGTGCAG”: the binding signal is 3700 fluorescence intensity (a.u.).
In the case of “AGCACACATCTACGCTTACATGTGTATACGTATGCTTACGCGGAGTCACCTAGTGCAG” it was 3870 fluorescence intensity (a.u.); in that of “ACTGGATCAACTGTTGACGAGATTATGAGCTATGCAATTTCGGAGTCACCTAGTGCAG”, 3200 fluorescence intensity (a.u.); in that of “GTGGACGATGCCTCCCTTCCTTTGACTCACCAGCTCTTGTCGGAGTCACCTAGTGCAG”, 6740 fluorescence intensity (a.u.).
Then “TACGCCGTTACGTGGTATGGTGTTGTGCCATTTCAGTCGGCGGAGTCACCTAGTGCAG”, with 3500 fluorescence intensity (a.u.); and “AGTTTCTACTGGATTATATTGTTGTTATATTGCATCATCACGGAGTCACCTAGTGCAG”, with 3880 fluorescence intensity (a.u.); and “GAGCTCGAGCAATCCGCCGTCCGTGTCGTCGTCGTCGGCGCGGAGTCACCTAGTGCAG”, with 3480 fluorescence intensity (a.u.).
On to “ATGGTTCGTGCGGACTCGGCGTCGGTGAGGTGGGCGGGCTCGGAGTCACCTAGTGCAG”, for which the binding signal is 3270 fluorescence intensity (a.u.).
Take “TAGGCGTGACACTGAAGTGGCGTGCGAATCCACTTGCTCTCGGAGTCACCTAGTGCAG”: the binding signal was 20700 fluorescence intensity (a.u.).
Then “CCCCACGTCGTCATCCGCAACCCGCCTACGCTAAGCAAAACGGAGTCACCTAGTGCAG”, with 21600 fluorescence intensity (a.u.); and “TTCCTTTGTAACTAGGCCAACTCAGCTTGGGTCTAGCCCACGGAGTCACCTAGTGCAG”, with 3460 fluorescence intensity (a.u.).
In the case of “TTCCATGGCATCCATGTCAACGTCATATCATTTGATTGTACGGAGTCACCTAGTGCAG” it was 4440 fluorescence intensity (a.u.); in that of “CGACCAATTACGCGCCGTACGTACGTGGAACACGGTCGAACGGAGTCACCTAGTGCAG”, 5190 fluorescence intensity (a.u.); in that of “TTAAATGGTGGAGAGTTGTGATTGGTTGGGAATGTGATGTCGGAGTCACCTAGTGCAG”, 6030 fluorescence intensity (a.u.).
With “GCCAAATTGTCACCACTTAAGTTGGTGGGTGAGGTTTAACCGGAGTCACCTAGTGCAG”, the binding signal was 3140 fluorescence intensity (a.u.).
Then “GTGCCTACAGATAGAAGTAGGTGTCCCATCATCACTCCATCGGAGTCACCTAGTGCAG”, with 3510 fluorescence intensity (a.u.); and “TCAAAGTTGTAGACAATCACACGTGTGATGACTTGCGACACGGAGTCACCTAGTGCAG”, with 7890 fluorescence intensity (a.u.); and “CCAGGAGGCAAGTAGGCAACGTCAGAGAATCCAAGCAGAGCGGAGTCACCTAGTGCAG”, with 3450 fluorescence intensity (a.u.).
For the sequence “ACGGGCCGTGCTTGGGCCAGCGGCTCGGCACGTGGGCCGGCGGAGTCACCTAGTGCAG”, the binding signal was 3480 fluorescence intensity (a.u.).
For “TTTGATGAGTTGACTTCGTTGACCCAACAGTGATGGCCGACGGAGTCACCTAGTGCAG”, the binding signal is 38700 fluorescence intensity (a.u.).
On to “TCGGCGGTCGTGGAGGTGGTGGCAGGCGGTCGTGGCGGAGCGGAGTCACCTAGTGCAG”, for which the binding signal is 3990 fluorescence intensity (a.u.).
Then “CTCAAATGTGTGTAGCACAAGTGTGACGTATGCACGTGTACGGAGTCACCTAGTGCAG”, with 7300 fluorescence intensity (a.u.); and “CGATCTGTAGTACGTTCCAAACTCTCGTCTCATGTCGTGTCGGAGTCACCTAGTGCAG”, with 3840 fluorescence intensity (a.u.).
Regarding “ACCCGTTCTCACACTTGTCAATTTGTCATTCCAAATATGCCGGAGTCACCTAGTGCAG”, the binding signal was 3290 fluorescence intensity (a.u.).
For “GGGGAGGCGGAAGGCGGTGCGGGGAGGCGGCGCTCGCTGACGGAGTCACCTAGTGCAG”, the binding signal is 3870 fluorescence intensity (a.u.).
In the case of “ATACCGGTGCGTTACAACGAGGTGAATGTTATTTTAATTTCGGAGTCACCTAGTGCAG”, the binding signal is 25200 fluorescence intensity (a.u.).
Take “TACTCACTCCCCTCAACTGCCAATTCCCCTCTCTCTCCTCCGGAGTCACCTAGTGCAG”: the binding signal was 3560 fluorescence intensity (a.u.).
Then “AGAGGGATTACGAACTCGCAATGTCTGTTTGTACGATGCGCGGAGTCACCTAGTGCAG”, with 23700 fluorescence intensity (a.u.); and “TAATCCTGTCACGTTTGCAGCCTGCCATCAACTGAAATTGCGGAGTCACCTAGTGCAG”, with 3330 fluorescence intensity (a.u.).
Then “GATGTTAATGTGCGTATGTGTCACATACCTGAAATGTTAGCGGAGTCACCTAGTGCAG”, with 3650 fluorescence intensity (a.u.).
For the sequence “TCATGCGCCCAGCTGCACTGAAGTCAACTCCAACCCATGTCGGAGTCACCTAGTGCAG”, the binding signal is 31200 fluorescence intensity (a.u.).
Regarding “CTCCGCAGAAGCAGCAGAACCACCACCACGCGGCGCCCTTCGGAGTCACCTAGTGCAG”, the binding signal is 3340 fluorescence intensity (a.u.).
Regarding “TTCACAAAACATGGTGCCATCTTGCCAACACAACCCTTGTCGGAGTCACCTAGTGCAG”, the binding signal was 3200 fluorescence intensity (a.u.).
In the case of “CTCTCGAGCATGAAAACGGGCCAAAATTTACCAGGTTTACCGGAGTCACCTAGTGCAG” it was 3560 fluorescence intensity (a.u.); in that of “GCGGCGAACATCCAGCTGTCGTCATCGAGCGACCTGACCTCGGAGTCACCTAGTGCAG”, 5420 fluorescence intensity (a.u.); in that of “TGTAGCTAGTGGAATTCAATTTGGTGATGGTTCAAATAAACGGAGTCACCTAGTGCAG”, 20600 fluorescence intensity (a.u.).
In the case of “CCTACGACTCATTACATCCACACGCAAGCAAAATCTCACTCGGAGTCACCTAGTGCAG” it was 5150 fluorescence intensity (a.u.).
Consider “AAGTACACAGAGTTCAGATTTATCATCGTCGCCGACGGGGCGGAGTCACCTAGTGCAG”, for which the binding signal was 14200 fluorescence intensity (a.u.).
“GTGAGGCGCCTTCTGGAAAATTCCAGCGCTGACAGATGGGCGGAGTCACCTAGTGCAG”: the binding signal was 28600 fluorescence intensity (a.u.).
On to “AGAGAGCCATAGGGTTTGTTCACTTTATTATCAAAATAATCGGAGTCACCTAGTGCAG”, for which the binding signal was 27200 fluorescence intensity (a.u.).
“CGACGCTTCCGTGGCTCCTCCTCCTCGCGCCCTCGCTGCGCGGAGTCACCTAGTGCAG”: the binding signal was 4010 fluorescence intensity (a.u.).
Then “GCACCAGCGGTCCTCAAACTTGTAAGGGTGTGTCATCTAGCGGAGTCACCTAGTGCAG”, with 3660 fluorescence intensity (a.u.).
